Here are results for 1 substance from PMC8526568.

Amino acid sequences for entries named in this document (tags omitted).
UniProt P49915: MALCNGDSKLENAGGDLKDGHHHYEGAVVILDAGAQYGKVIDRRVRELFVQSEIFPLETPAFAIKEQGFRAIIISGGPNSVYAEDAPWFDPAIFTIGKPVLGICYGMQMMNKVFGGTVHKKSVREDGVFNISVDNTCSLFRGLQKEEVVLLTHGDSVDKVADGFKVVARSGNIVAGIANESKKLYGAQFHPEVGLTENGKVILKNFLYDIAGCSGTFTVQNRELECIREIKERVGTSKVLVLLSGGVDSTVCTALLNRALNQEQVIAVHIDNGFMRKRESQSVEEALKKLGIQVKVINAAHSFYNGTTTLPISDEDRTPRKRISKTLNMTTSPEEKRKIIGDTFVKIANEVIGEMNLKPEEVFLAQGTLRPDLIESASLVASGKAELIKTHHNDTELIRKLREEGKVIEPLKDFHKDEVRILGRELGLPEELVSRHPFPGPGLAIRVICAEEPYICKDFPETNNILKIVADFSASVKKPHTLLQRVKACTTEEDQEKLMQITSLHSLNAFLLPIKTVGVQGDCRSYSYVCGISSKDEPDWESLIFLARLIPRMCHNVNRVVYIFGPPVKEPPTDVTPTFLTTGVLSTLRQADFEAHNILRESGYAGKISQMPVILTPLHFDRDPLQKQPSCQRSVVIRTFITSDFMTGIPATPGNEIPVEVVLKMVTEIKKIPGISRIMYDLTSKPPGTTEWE

In experiment [1] the target is IMPDH2 lacking 101-134 aa (shRNA-resistant cDNA) (human) (UniProt P12268). The experiment is described as follows: co-IP; MDA-MB-231 cells depleted of endogenous IMPDH2 by shRNA and transduced with shRNA-resistant wild-type or deletion-mutant IMPDH2; immunoprecipitation and immunoblotting.
Experiment [2] addresses IMPDH2 lacking 153-225 aa (shRNA-resistant cDNA) (human) (UniProt P12268). Described as above.

These are yes or no findings as the source states them, for the method shown. Binding seen in cells or lysates may run through a third protein. A result given as binding can be weak or reduced; the word gives no strength.

For the substance “guanosine monophosphate synthase (GMPS), endogenous (from UniProt P49915 1-693) (enzyme)”, the binding entry in experiment [1] and in experiment [2] was “binds” each time.
